Assay results published in paper PMC7367482, “An Erg11 lanosterol 14-α-demethylase-Arv1 complex is required for Candida albicans virulence” (PLoS ONE, 2020).

Biological target: CaErg11^(Y132L F145L)-MYC (C. albicans) (UniProt P10613)
Assay: co-IP; whole cell lysates of Scarv1 cells co-expressing Arv1-HA and Erg11-MYC; 1 mg protein, anti-HA (16B12) or anti-MYC (9E10) 4 hr at 4°C, Protein A agarose; washes with 10 mM HEPES pH 7.5, 200 mM NaCl, 5 mM EDTA, 0.1% Nonidet P-40; western

Substance	binding
CaArv1^C3A-HA (from UniProt Q5ANH2 1-296)	binds
CaArv1^C28A-HA (from UniProt Q5ANH2 1-296)	no binding
CaArv1^Y38A-HA (from UniProt Q5ANH2 1-296)	binds

Results are given in words; binding and its absence hold for the method and conditions named. Binding seen in cells or lysates may run through a third protein. Binding can be weak; no strength is given.
